This is one part of the list. The main result of the screen is listed elsewhere. These columns were measured beside it and carry no call. The list favours compounds with an active or inconclusive main result. Potencies come from curve fits of mixed quality, noted in brackets.

This assay in a line: qHTS Assay for Lipid Storage Modulators in Drosophila S3 Cells.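 For cell number change: cells counted by Cell Tracker Red CMTPX staining in the red channel.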 Conditions: BODIPY lipid droplet fluorescence, 18-24 h; for cell number change: measured here: cell count max response, cells fed with added oleic acid. The essentials: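 Drosophila S3 cells loaded with oleic acid (400 uM, as added) and compounds at several concentrations; lipid droplets imaged by 488-nm laser-scanning cytometry, 500–530 nm intensity and object ratio to cell channel. Percent activity normalized to 20 uM Triacsin C.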

Setting [1] is: measured here: cell number channel AC50, cells fed with added oleic acid.
The mark [2] stands for this setting: measured here: lipid fluorescence (Fed channel) AC50, cells fed with added oleic acid.

`COc1ccc(OC)c(NC(=O)CSc2ccc3nnc(-c4cccnc4)n3n2)c1`: the cell number change came to 35.2%. The half-maximal activity concentration (AC50) under setting [1] is 2.06 µM [rising, full curve]. In addition, the AC50 under setting [2] is 3.26 µM [rising, single point].
For `Cc1ccc(NC(=O)c2cc(S(=O)(=O)NCCC3=CCCCC3)ccc2F)cc1F`, the cell number change was -34.6%. For the same molecule, the AC50 under setting [1] is 16.4 µM [falling, single point]. Besides, the concentration at half-maximal activity (AC50) under setting [2] was 16.4 µM [falling, single point].
On to `Cc1c(C(c2ccc(C(=O)O)cc2)c2c(C)n(C)n(-c3ccccc3)c2=O)c(=O)n(-c2ccccc2)n1C`, for which the cell number change was -6.76%. In addition, the AC50 under setting [2] is 0.116 µM [falling, full curve, poor fit].
As to `Cc1ccc(NC(=O)C2C3CCC(O3)C2C(=O)O)c(Br)c1` (centres undefined), the cell number change turned out to be 3.87%. The AC50 under setting [2] is 1.64 µM [falling, partial curve].
Take `CCOC(=O)c1cnc(-c2ccccc2)nc1N(C)C`: the cell number change came to 41.8%. For the same molecule, the AC50 under setting [1] is 0.461 µM [rising, partial curve].
With `CCOc1ccccc1-n1c(=S)sc2c(=O)n(-c3ccc(F)cc3)c(SCC(=O)O)nc21`, the cell number change was -35.2%. In addition, under setting [1], the AC50 is 3.66 µM [falling, full curve].
Consider `CC(C)CCNC(=O)c1ccc(Cl)c(NC(=O)Cc2ccccc2)c1`, for which the AC50 under setting [2] was 2.31 µM [rising, partial curve].
Turning to `CCC1CCCCN1C(=O)CSc1nc2ncccc2[nH]1` (centres undefined), the AC50 under setting [2] is 29.1 µM [rising, single point].
Regarding `CCOC(=O)CC(=O)CSc1nc2nc(C)cc(C)n2n1`, the cell number change came out at 1.56%. Besides, under setting [2], the AC50 is 7.31 µM [rising, partial curve].
Turning to `O=C1N/C(=N\c2ccccn2)SC1Cc1ccccc1Cl` (centres undefined), the cell number change came to 30.3%. The AC50 under setting [1] is 29.1 µM [rising, single point].
In the case of `Cc1ccc(N2CC(C(=O)Nc3ccc(S(=O)(=O)Nc4ncccn4)cc3)CC2=O)cc1C` (centres undefined), the cell number change was 9.83%. Moreover, the AC50 under setting [2] is 6.51 µM [rising, partial curve, poor fit].
As to `COC(=O)C1=C(N)OC2=C(C(=O)CC(C)(C)C2)C1c1cc2c(cc1Cl)OCO2` (centres undefined), the cell number change is 4.85%. Under setting [2], the AC50 is 32.6 µM [falling, single point].
Take `O=C1CCCC/C1=N\Nc1ccc(OCc2ccccc2)cc1`: the cell number change was found to be 1.31%. The concentration at half-maximal activity (AC50) under setting [2] is 23.1 µM [falling, partial curve, poor fit].
Turning to `Cc1nn(-c2ccccc2)c2sc(-c3nnc(SCC(=O)O)o3)cc12`, the cell number change is 12.7%. Under setting [2], the AC50 is 5.8 µM [rising, partial curve].
As to `CC1=NN(C(=O)c2ccc(Cl)cc2)C(O)(c2ccccc2)C1` (centres undefined), the cell number change was -21.5%. Also, the concentration at half-maximal activity (AC50) under setting [2] was 6.51 µM [falling, partial curve].
Consider `C/C(=N\NC(=O)c1nn(C)cc1Br)c1cccc(NC(=O)C2CCCC2)c1`, for which the cell number change is -21.8%.
On to `CCOC(=O)N1CCN(Cc2nc3cc(NC(=O)C(C)C)ccc3n2C)CC1`, for which, under setting [1], the AC50 is 4.61 µM [falling, single point].
With `Cc1ccc(NC(=O)CN(C)C(=O)c2cccc(S(=O)(=O)N3CCCC3)c2)cc1`, the cell number change is -17%. Also, under setting [2], the half-maximal activity concentration (AC50) is 29.1 µM [falling, single point].
Turning to `COC(=O)c1ccccc1NC(=O)CN1CCC(C(=O)c2ccc3c(c2)OCCO3)CC1`, the cell number change is -12.9%. Besides, the AC50 under setting [2] is 0.82 µM [rising, partial curve].
As to `CC(=O)c1ccc(OC(=O)CCc2ccccc2)cc1`, the cell number change stood at 7.02%. Besides, under setting [2], the AC50 is 29.1 µM [rising, single point].
Take `OCC1OC(n2nnc3ccccc32)C(O)C(O)C1O` (centres undefined): the cell number change is -87%. Also, the half-maximal activity concentration (AC50) under setting [1] was 20.6 µM [falling, single point].
Turning to `COCCCN(CC(=O)O)S(=O)(=O)c1ccccc1`, the cell number change is -18.5%. Besides, the concentration at half-maximal activity (AC50) under setting [2] is 0.82 µM [falling, full curve, poor fit].
As for `O=C(c1cccn(Cc2ccc(Cl)c(Cl)c2)c1=O)N1CCOCC1`, the cell number change was -12.9%. For the same molecule, the concentration at half-maximal activity (AC50) under setting [2] was 0.259 µM [falling, full curve, poor fit].
As to `CC(NC(=O)c1ccc(S(=O)(=O)C(F)F)cc1)c1ccccc1` (centres undefined), the cell number change is -27.8%. The AC50 under setting [1] is 0.13 µM [falling, full curve, poor fit]. In addition, under setting [2], the AC50 is 0.092 µM [falling, full curve, poor fit].
Turning to `CC(C)(C)C(=O)Nc1cc(C(F)(F)F)ccc1-n1ccnc1`, the cell number change was -91.6%. In addition, under setting [1], the AC50 is 29.1 µM [falling, single point]. Moreover, the AC50 under setting [2] is 29.1 µM [falling, single point].
On to `CN1CCCN(C(=O)c2ccc(Cl)c(S(=O)(=O)N(C)c3ccccc3)c2)CC1`, for which the cell number change amounted to 0.476%. Further, under setting [2], the AC50 was 6.51 µM [falling, single point].
On to `CC(=O)Nc1c(O)nc(SCC(=O)Nc2cccc(C)c2)[nH]c1=O`, for which the cell number change is -52%. For the same molecule, the AC50 under setting [1] was 4.11 µM [falling, partial curve].
Regarding `COc1ccc(NC(=O)c2cccc(OS(=O)(=O)N(C)C)c2)cc1`, the cell number change is -5.41%.
In the case of `CCc1cc2c(SCC#N)ncnc2s1`, the cell number change amounted to 53.2%. In addition, the AC50 under setting [1] is 14.6 µM [rising, partial curve].
As to `Cc1cc([N+](=O)[O-])nn1CC(=O)N1c2ccccc2CC1C` (centres undefined), the cell number change was 12.6%. For the same molecule, under setting [2], the AC50 is 29.1 µM [rising, partial curve].
As to `O=C(NCCSCc1ccc(Cl)cc1)c1cccs1`, the cell number change was -47.2%. Besides, the half-maximal activity concentration (AC50) under setting [1] was 29.1 µM [falling, single point].
With `CCCNC(=O)c1ccc(N2CCC3(CC2)CC(c2ccccc2)=NO3)c(NC(=O)Cc2ccc(F)cc2)c1`, the cell number change was 18.3%.
Consider `Cc1nc2ccccc2c(=O)n1NC(=O)CCC(=O)O`, for which the cell number change is -39.2%. In addition, the concentration at half-maximal activity (AC50) under setting [2] is 35.5 µM [rising, partial curve, poor fit].
On to `CC1CCc2sc(NC(=O)c3ccc(N4C(=O)CCC4=O)cc3)c(C(N)=O)c2C1` (centres undefined), for which the cell number change stood at 14.2%. The half-maximal activity concentration (AC50) under setting [1] is 0.146 µM [rising, full curve, poor fit].
As for `CC(C)(C)C(=O)Nc1ccccc1C(=O)NCc1ccco1`, the cell number change was -8.58%. Moreover, under setting [2], the AC50 was 6.51 µM [rising, single point].
Regarding `CCn1c(=O)c(CCC(=O)NCC2CCCO2)c(C)c2c(C)nn(-c3ccccc3)c21` (centres undefined), the cell number change was -39.4%. For the same molecule, the AC50 under setting [1] was 29.1 µM [falling, single point]. The concentration at half-maximal activity (AC50) under setting [2] is 2.91 µM [falling, full curve].
Consider `O=C(c1cc(Br)ccc1Cl)N1CCN(c2ccc(N3CCOCC3)nn2)CC1`, for which the cell number change worked out at 22.7%. In addition, the concentration at half-maximal activity (AC50) under setting [1] was 0.731 µM [falling, full curve]. In addition, the concentration at half-maximal activity (AC50) under setting [2] was 0.259 µM [falling, full curve, poor fit].
For `COC(=O)c1cn(NC(=O)c2ccc([N+](=O)[O-])cc2Cl)c(=O)c2ccccc12`, the cell number change was determined as 34.7%. Under setting [2], the AC50 was 29.1 µM [rising, single point].
As to `CCC(=O)N1CCc2cc(S(=O)(=O)NCCC(=O)N3CCN(c4cccc(OC)c4)CC3)ccc21`, under setting [2], the concentration at half-maximal activity (AC50) was 23.1 µM [rising, partial curve].
For the molecule `Cc1ccc(S(=O)(=O)NC(C)C(=O)NC2CC2)cc1` (centres undefined), the cell number change was 3.97%. For the same molecule, the half-maximal activity concentration (AC50) under setting [2] is 6.51 µM [rising, partial curve].
Regarding `COC(=O)c1cc2n(n1)CCN(Cc1ccccc1F)C2=O`, the cell number change is -25.6%.
For the molecule `CCOC(=O)c1sc(NC(=O)CSc2nnnn2-c2ccc(C)cc2)c(C(=O)OCC)c1C`, the cell number change was determined as 102%. The AC50 under setting [1] is 8.2 µM [rising, partial curve, poor fit]. Further, the AC50 under setting [2] is 1.46 µM [rising, partial curve].
`Cc1cc(=O)oc2cc(NC(=O)c3c(Cl)cnn3C)ccc12`: the cell number change was -9.01%.
As for `Cc1cccc(N2C(=O)N3[C@H](c4ccc(Cl)cc4)[C@@H]4C(=O)N(C5CCCCC5)C(=O)[C@@H]4[C@]3(Cc3ccc(Cl)cc3)C2=O)c1`, the cell number change came out at 86.8%. For the same molecule, the half-maximal activity concentration (AC50) under setting [1] is 29.1 µM [rising, single point]. Besides, the half-maximal activity concentration (AC50) under setting [2] is 2.06 µM [falling, full curve, poor fit].
Consider `OC1CCCC1`, for which the cell number change is -20.2%. In addition, the AC50 under setting [1] is 0.164 µM [falling, full curve, poor fit].
`CC(C)N(C(=O)c1ccc(C(=O)Nc2ccc([N+](=O)[O-])cc2)cc1)C(C)C`: the cell number change is -18%. Besides, the AC50 under setting [2] was 25.1 µM [falling, partial curve].
On to `O=C(NCc1ccc(F)cc1)c1cc(-c2cccs2)on1`, for which the cell number change amounted to 29.9%.
Regarding `O=C(CCN1CCN(C(c2ccccc2)c2ccccc2)CC1)N/N=C/c1ccc(O)cc1O`, the cell number change was -19.1%. Under setting [2], the half-maximal activity concentration (AC50) was 32.6 µM [falling, single point].
Consider `CC(=O)N1CCc2cc(S(=O)(=O)NCC(=O)NCc3ccc(Cl)cc3)ccc21`, for which the cell number change stood at 26.7%. Further, the half-maximal activity concentration (AC50) under setting [2] is 29.1 µM [rising, single point].
Take `CCOC(=O)C1=C(CSc2nccn2C)NC(=O)NC1c1ccc2c(c1)OCO2` (centres undefined): the cell number change came to 15.7%. The AC50 under setting [2] is 0.731 µM [rising, single point].
Take `COc1cc2c(cc1OC)CN(C(=O)/C=C/c1ccccc1[N+](=O)[O-])CC2`: the cell number change is -9.27%. The AC50 under setting [2] is 0.58 µM [rising, full curve].
Regarding `CCOC(=O)C12CNC(=O)C(C(=O)OCC)(CNC1=O)C2`, the cell number change was 24.2%.
Consider `COc1cc(NS(=O)(=O)c2ccc(C)cc2)ccc1-n1cnnn1`, for which the cell number change was -27.1%.
`Cc1ccc(-c2ccnc3[nH]n(-c4ccccc4)c(=O)c23)cc1`: the concentration at half-maximal activity (AC50) under setting [2] is 0.231 µM [falling, full curve, poor fit].
As to `CCOc1ccc(/C=c2\sc3nc(-c4ccco4)nn3c2=O)cc1OCC`, the concentration at half-maximal activity (AC50) under setting [2] is 0.58 µM [falling, single point].
Consider `CC(/C=C/C=C/c1ccccc1)=N/NC(=O)CNc1ccc(C)cc1`, for which the cell number change worked out at 104%.
Turning to `Cc1cc(NS(=O)(=O)c2ccc(NC(=O)c3cc(-c4ccccc4Cl)nc4ccccc34)cc2)no1`, the cell number change worked out at 4.32%. In addition, the concentration at half-maximal activity (AC50) under setting [2] is 18.4 µM [rising, single point].
Consider `O=C(CCNC(=O)C1CCN(S(=O)(=O)c2ccccc2)CC1)Nc1ccccc1`, for which the cell number change is 1.98%. Moreover, the AC50 under setting [2] was 0.58 µM [falling, single point].
For `Cc1ccc(OCc2cc(C(=O)NCCn3cccn3)no2)cc1C`, the cell number change was 18%. Besides, the AC50 under setting [1] was 0.731 µM [rising, partial curve]. Further, the AC50 under setting [2] was 0.58 µM [rising, single point].
Regarding `O=C(O)C(Cc1c[nH]c2ccccc12)N1CCS(=O)(=O)CC1` (centres undefined), the cell number change was -30.5%. Further, the half-maximal activity concentration (AC50) under setting [1] is 29.1 µM [falling, single point].

These data come from PubChem BioAssay AID2685 (National Center for Advancing Translational Sciences (NCATS), 2010).
